# Primary screen of a compound library

By UniProt entry, the sequences of proteins in these tests, tags left out.
UniProt E9BF75, entry or part of it: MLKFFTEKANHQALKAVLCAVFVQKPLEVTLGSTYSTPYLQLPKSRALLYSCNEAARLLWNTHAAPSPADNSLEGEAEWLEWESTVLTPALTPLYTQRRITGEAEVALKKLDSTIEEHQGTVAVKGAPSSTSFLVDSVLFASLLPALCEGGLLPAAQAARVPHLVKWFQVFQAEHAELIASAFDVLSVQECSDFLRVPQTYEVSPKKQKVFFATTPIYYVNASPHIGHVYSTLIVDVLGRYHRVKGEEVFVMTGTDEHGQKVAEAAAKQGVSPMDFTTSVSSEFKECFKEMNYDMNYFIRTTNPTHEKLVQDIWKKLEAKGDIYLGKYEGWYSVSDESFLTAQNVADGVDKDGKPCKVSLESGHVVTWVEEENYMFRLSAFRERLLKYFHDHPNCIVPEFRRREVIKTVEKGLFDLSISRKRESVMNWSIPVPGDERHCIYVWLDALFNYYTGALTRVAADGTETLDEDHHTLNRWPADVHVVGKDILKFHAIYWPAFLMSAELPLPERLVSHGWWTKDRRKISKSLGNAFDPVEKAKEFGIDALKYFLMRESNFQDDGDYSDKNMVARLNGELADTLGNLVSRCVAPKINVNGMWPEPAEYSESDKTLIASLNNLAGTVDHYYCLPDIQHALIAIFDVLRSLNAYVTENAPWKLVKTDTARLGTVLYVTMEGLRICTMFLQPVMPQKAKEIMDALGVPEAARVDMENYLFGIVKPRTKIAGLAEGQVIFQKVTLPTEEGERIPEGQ

Source: ChEMBL document CHEMBL3988442, “University of Dundee, Small-Polar-MMV Screening Library” (2021).

A: 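Assay on Mycobacterium tuberculosis, filed only as a heat shock assay from Cornell; the read-out is not stated. The concentration is filed as 10 mM, unlikely as a test dose, so the dose is not known. The record gives no direction; compounds that gave an IC50 in retests scored well above the rest, so higher reads as stronger inhibition. Size under these conditions: about 69,000 compounds, about 930 of them at 50% or above in at least one test.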
B: 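Whole-cell assay for inhibitors of Mycobacterium tuberculosis growth, labelled Cornell in the record; the read-out is not stated. The concentration is filed as 10 mM, unlikely as a test dose, so the dose is not known. The record gives no direction; compounds strong in two other growth screens of this library score well above the rest, so higher reads as stronger inhibition. About 53,000 compounds were tested under these conditions; 1.7% (about 900) showed 50% or more at least once.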
C: 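Primary screen of methionyl-tRNA synthetase; the read-out is not stated. Target: Methionyl-tRNA synthetase (putative), Leishmania donovani (UniProt E9BF75). The test concentration is not given. Values are per cent inhibition. Size under these conditions: about 68,000 compounds, about 24 of them at 50% or above in at least one test.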

All values are in %. The record does not define 0% and 100%; most values in the screen are far below 50% and negative numbers occur (in some assays of this library far below -100). The compounds are a random part of those screened. A dash means the value is not listed here; it may have been measured.

* O=C(N1CCOCC1)n1cnc2ccccc21 | A: -3.969%; B: 14.08%; C: 5.81%
* Cn1ccnc1CN1CC[C@@H](NS(C)(=O)=O)[C@@H]1Cc1ccccc1.O=C(O)C(F)(F)F | A: 2.855%; B: 8.489%
* Cc1ccc2c(c1)C1(CCNCC1)CC2NCCO (stereo not given) | C: 15.06%
* Cc1cc2ccncc2n1CC1(O)CCN(C(=O)c2ccccn2)CC1 | A: -3.186%; B: -24.52%; C: 20%
* Cc1ccccc1S(=O)(=O)NC(=O)C1(c2cccc(Cl)c2)CC1 | A: -34.94%; B: 39.49%; C: 2.799%
* COc1ccc(C2(c3nc(-c4cccnc4)no3)CCOCC2)cc1 | A: 2.439%; C: 3.693%
* c1ccc(-n2nnnc2NCc2ccc3c(c2)OCO3)cc1 | A: 1.014%; B: -1.727%; C: 11.33%
* CCS(=O)(=O)N1Cc2ncn(CC3CC3)c2C(COCC2CC2)C1 (stereo not given) | C: 20.3%
* CNC(=O)[C@@]12CCO[C@@H]1CCN(Cc1cccc(C)c1)C2 | C: 16.48%
* CN(C)CCn1ccnc1C1CCN(C(=O)CCc2cccnc2)CC1 | A: -30.44%; B: 8.345%; C: 12.24%
* Cc1ccsc1CN(C)C(=O)C1CCCN(C(N)=O)C1 (stereo not given) | A: -10.81%; B: -15.65%; C: 4.57%
* O=C(c1ccco1)N1CCC12CCN(c1ncc(F)cn1)CC2 | A: 6.211%; B: 15.2%; C: 20.73%
* CCC1COCCN1C(=O)CNC(=O)c1ccoc1C (stereo not given) | A: 2.544%; B: 26.15%; C: 13.17%
* CC(C)N(C)CCNC(=O)N(C)CC1CCOCC1 | A: 5.31%; C: 12.98%
* CC(C)C1CN(c2nccc(N)n2)CCC(=O)N1Cc1ccc(F)cc1 (stereo not given) | A: -1.68%; B: -24.8%; C: 0.5376%
* CCc1nc(C)c(CN2CCN(c3ncnc4c(C)csc34)CC2)[nH]1 | A: -0.3649%; C: 14.09%
* Cc1ccc(CN2CCC3(CCC(C(=O)N(C)C)O3)CC2)o1 (stereo not given) | C: 9.524%
* Cn1ccnc1CN1CCN(Cc2cc(C#N)ccc2F)CC1 | A: 18.15%; B: 20.36%; C: 10.48%

2 of the entries, repeated:

structure,A,B,C
Cn1ccnc1CN1CC[C@@H](NS(C)(=O)=O)[C@@H]1Cc1ccccc1.O=C(O)C(F)(F)F,2.855,8.489,-
Cc1ccccc1S(=O)(=O)NC(=O)C1(c2cccc(Cl)c2)CC1,-34.94,39.49,2.799